Test results taken from US20020137736A1, “Novel compounds” (priority 1999, published 2002).
Counter-ions that a name gives are not always drawn. Some entries share one result that the patent states for a list of compounds. For part of these data: At least one compound was matched to its structure with a doubt left.

Assays:
[1] = biological target: neuronal nitric oxide synthase (UniProt P29476); conditions: read-out: IC50 values for inhibition of neuronal nitric oxide synthase; neuronal isoform; text does not say whether rat or human screen
[2] = biological target: T1, endothelial nitric oxide synthase (Homo sapiens, UniProt P29474); assay: Screen for endothelial nitric oxide synthase inhibiting activity; type: biochemical; conditions: neuronal versus endothelial nitric oxide synthase
T1 construct: The enzyme is isolated from human umbilical vein endothelial cells (HUVECs); host or cells: HUVECs; CHAPS-solubilised particulate fraction

Row | SMILES | IC50 [1] [µM] | selectivity compared to inhibition of the endothelial isoform of the enzyme [2]
1 | CNCc1cc(NC(=N)c2cccs2)ccc1OC.Cl.Cl [Example 1, N-{4-Methoxy-3-[(methylamino)methyl]phenyl}-2-thiophenecarboximidamide Dihydrochloride] | < 10 | good selectivity
2 | COc1ccc(NC(=N)c2cccs2)cc1CN1CCCC1 [Example 2, N-[4-Methoxy-3-(1-pyrrolidinylmethyl)phenyl}-2-thiophenecarboximidamide Dihydrochloride] | < 10 | good selectivity
3 | COc1ccc(NC(=N)c2cccs2)cc1CN1CCOCC1 [Example 3, N-[4-Methoxy-3-(1-morpholinylmethyl)phenyl}-2-thiophenecarboximidamide Dihydrochloride] | < 10 | good selectivity
4 | COc1ccc(NC(=N)c2cccs2)cc1CN1CCN(C)CC1.Cl.Cl [Example 4, N-{4-Methoxy-3-[(4-methyl-1-piperazinyl)methyl]phenyl}-2-thiophenecarboximidamide Dihydrochloride] | < 10 | good selectivity
5 | CCCOc1ccc(NC(=N)c2cccs2)cc1CNC.Cl.Cl [Example 5, N-{4-Propoxy-3-[(methylamino)methyl]phenyl}-2-thiophenecarboximidamide Dihydrochloride] | < 10 | good selectivity
6 | CNCc1cc(NC(=N)c2cccs2)ccc1OC1CCCC1.Cl.Cl [Example 6, N-{4-(Cyclopentyloxy)-3-[(methylamino)methyl]phenyl}-2-thiophenecarboximidamide Dihydrochloride] | < 10 | good selectivity
7 | N=C(Nc1ccc(OC2CCCC2)c(CN2CCCC2)c1)c1cccs1 [Example 7, N-[4-Cyclopentyloxy-3-(1-pyrrolidinylmethyl)phenyl}-2-thiophenecarboximidamide] | < 10 | good selectivity
8 | COc1ccc(NC(=N)c2ccsc2)cc1CN1CCOCC1 [Example 8, N-[4-Methoxy-3-(1-morpholinylmethyl)phenyl}-3-thiophenecarboximidamide Dihydrochloride] | < 10 | good selectivity
9 | CNCc1ccc(OC)c(NC(=N)c2cccs2)c1.Cl.Cl [Example 9, N-{2-Methoxy-5-[(methylamino)methyl]phenyl}-2-thiophenecarboximidamide Dihydrochloride] | < 10 | good selectivity
10 | CNCc1cccc(NC(=N)c2cccs2)c1OC.Cl.Cl [Example 10, N-{2-Methoxy-3-[(methylamino)methyl]phenyl}-2-thiophenecarboximidamide Dihydrochloride] | < 10 | good selectivity
11 | CNCc1cc(NC(=N)c2ccco2)ccc1OC [Example 11, N-{4-Methoxy-3-[(methylamino)methyl]phenyl}-2-furancarboximidamide] | < 10 | good selectivity
12 | COc1ccc(NC(=N)c2cccs2)cc1CNCCF [Example 12, N-3-{[(2-Fluoroethyl)amino]methyl}-4-methoxyphenyl)-2-thiophenecarboximidamide Hydrochloride] | < 10 | good selectivity
13 | COc1ccc(NC(=N)c2cccs2)cc1CN [Example 13, N-[3-(Aminomethyl)-4-methoxyphenyl)-2-thiophenecarboximidamide] | < 10 | good selectivity
14 | COc1ccc(NC(=N)c2cccs2)cc1CNCC(F)F [Example 14, N-(3-{[(2,2-Difluoroethyl)amino)methyl-4-methoxyphenyl)-2-thiophenecarboximidamide Dihydrochloride] | < 10 | good selectivity
15 | COc1ccc(NC(=N)c2cccs2)cc1CNCC(F)(F)F [Example 15] | < 10 | good selectivity
16 | COc1ccc(NC(=N)c2cccs2)cc1CNC1CC1 [Example 16, N-(3-[(Cyclopropylamino}methyl]-4-methoxyphenyl}-2-thiophenecarboximidamide] | < 10 | good selectivity
17 | CCN(CC)Cc1cc(NC(=N)c2cccs2)ccc1OC [Example 17, N-{3-[(Diethylamino)methyl]-4-methoxyphenyl}-2-thiophenecarboximidamide] | < 10 | good selectivity
18 | COc1ccc(NC(=N)c2cccs2)cc1CNC(C)C [Example 18, N-{3-[(Isopropylamino)methyl]-4-methoxyphenyl}-2-thiophenecarboximidamide] | < 10 | good selectivity
19 | CNCc1cc(NC(=N)c2cccs2)ccc1OC(C)C [Example 19, N-{4-Isopropoxy-3-[{methylamino}methyl]phenyl}-2-thiophenecarboximidamide] | < 10 | good selectivity
20 | CC(C)NCc1cc(NC(=N)c2cccs2)ccc1OC(C)C.Cl.Cl [Example 20, N-{4-Isopropoxy-3-[{isopropylamino}methyl]phenyl}-2-thiophenecarboximidamide Dihydrochloride] | < 10 | good selectivity

Other lines, results leading:

Row | IC50 [1] [µM] | selectivity compared to inhibition of the endothelial isoform of the enzyme [2] | SMILES
21 | < 10 | good selectivity | CC(C)Oc1ccc(NC(=N)c2cccs2)cc1CN1CCCC1 [Example 21, N-[4-Isopropoxy-3-(1-pyrrolidinylmethyl)phenyl]-2-thiophenecarboximidamide]
22 | < 10 | good selectivity | CCC(CC)Oc1ccc(NC(=N)c2cccs2)cc1CNC [Example 22, N-{4-(1-Ethylpropoxy)-3-[(methylamino)methyl]phenyl}-2thiophenecarboximidamide]
23 | < 10 | good selectivity | CCC(CC)Oc1ccc(NC(=N)c2cccs2)cc1CNC(C)C.Cl.Cl [Example 23, N-{4-(1-Ethylpropoxy)-3-[(isopropylamino)methyl]phenyl}-2thiophenecarboximidamide Dihydrochloride]
24 | < 10 | good selectivity | CC(C)NCc1cc(NC(=N)c2cccs2)ccc1OC1CCCC1.Cl.Cl [Example 24, N-{4-Cyclopentyloxy-3-[(isopropylamino)methyl]phenyl}-2-thiophenecarboximidamide Dihydrochloride]
25 | < 10 | good selectivity | CNCc1cc(NC(=N)c2cccs2)ccc1Oc1ccccc1.Cl.Cl [Example 25, N-{3-[(Methylamino)methyl]-4-phenoxyphenyl}-2-thiophenecarboximidamide Dihydrochloride]
26 | < 10 | good selectivity | CC(C)NCc1cc(NC(=N)c2cccs2)ccc1Oc1ccccc1.Cl.Cl [Example 26, N-{3-[(Isopropylamino)methyl]-4-phenoxyphenyl}-2-thiophenecarboximidamide Dihydrochloride]
27 | < 10 | good selectivity | Cl.Cl.N=C(Nc1ccc(Oc2ccccc2)c(CNC2CC2)c1)c1cccs1 [Example 27, N-{3-[(Cyclopropylamino)methyl]-4phenoxyphenyl}-2-thiophenecarboximidamide Dihydrochloride]
28 | < 10 | good selectivity | CNC(C)c1cc(NC(=N)c2cccs2)ccc1OC (stereo not drawn) [Example 29, N-{4-Methoxy-3-[1-(methylamino)ethyl]phenyl}-2thiophenecarboximidamide]
29 | < 10 | good selectivity | COc1ccc(NC(=N)c2cccs2)cc1C1CCCN1C (stereo not drawn) [Example 30, N-[4-Methoxy-3-(1-methyl-2-pyrrolidinyl)phenyl]-2-thiophenecarboximidamide]
30 | < 10 | good selectivity | COc1ccc(NC(=N)c2cccs2)cc1C1CCCN1 (stereo not drawn) [Example 31, N-[4-Methoxy-3-(2-pyrrolidinyl)phenyl]-2-thiophenecarboximidamide]
